Experimental data from paper PMC9889812.
Results are given in words; binding and its absence hold for the method and conditions named. Some binding calls cover weakened binding; strength is not graded here.

The chains behind the UniProt entries cited, without tags or fusion partners. Where a name states a change or a piece, a line headed by the entry shows the natural chain unless it says otherwise. Residues count along the entry.
UniProt Q15878: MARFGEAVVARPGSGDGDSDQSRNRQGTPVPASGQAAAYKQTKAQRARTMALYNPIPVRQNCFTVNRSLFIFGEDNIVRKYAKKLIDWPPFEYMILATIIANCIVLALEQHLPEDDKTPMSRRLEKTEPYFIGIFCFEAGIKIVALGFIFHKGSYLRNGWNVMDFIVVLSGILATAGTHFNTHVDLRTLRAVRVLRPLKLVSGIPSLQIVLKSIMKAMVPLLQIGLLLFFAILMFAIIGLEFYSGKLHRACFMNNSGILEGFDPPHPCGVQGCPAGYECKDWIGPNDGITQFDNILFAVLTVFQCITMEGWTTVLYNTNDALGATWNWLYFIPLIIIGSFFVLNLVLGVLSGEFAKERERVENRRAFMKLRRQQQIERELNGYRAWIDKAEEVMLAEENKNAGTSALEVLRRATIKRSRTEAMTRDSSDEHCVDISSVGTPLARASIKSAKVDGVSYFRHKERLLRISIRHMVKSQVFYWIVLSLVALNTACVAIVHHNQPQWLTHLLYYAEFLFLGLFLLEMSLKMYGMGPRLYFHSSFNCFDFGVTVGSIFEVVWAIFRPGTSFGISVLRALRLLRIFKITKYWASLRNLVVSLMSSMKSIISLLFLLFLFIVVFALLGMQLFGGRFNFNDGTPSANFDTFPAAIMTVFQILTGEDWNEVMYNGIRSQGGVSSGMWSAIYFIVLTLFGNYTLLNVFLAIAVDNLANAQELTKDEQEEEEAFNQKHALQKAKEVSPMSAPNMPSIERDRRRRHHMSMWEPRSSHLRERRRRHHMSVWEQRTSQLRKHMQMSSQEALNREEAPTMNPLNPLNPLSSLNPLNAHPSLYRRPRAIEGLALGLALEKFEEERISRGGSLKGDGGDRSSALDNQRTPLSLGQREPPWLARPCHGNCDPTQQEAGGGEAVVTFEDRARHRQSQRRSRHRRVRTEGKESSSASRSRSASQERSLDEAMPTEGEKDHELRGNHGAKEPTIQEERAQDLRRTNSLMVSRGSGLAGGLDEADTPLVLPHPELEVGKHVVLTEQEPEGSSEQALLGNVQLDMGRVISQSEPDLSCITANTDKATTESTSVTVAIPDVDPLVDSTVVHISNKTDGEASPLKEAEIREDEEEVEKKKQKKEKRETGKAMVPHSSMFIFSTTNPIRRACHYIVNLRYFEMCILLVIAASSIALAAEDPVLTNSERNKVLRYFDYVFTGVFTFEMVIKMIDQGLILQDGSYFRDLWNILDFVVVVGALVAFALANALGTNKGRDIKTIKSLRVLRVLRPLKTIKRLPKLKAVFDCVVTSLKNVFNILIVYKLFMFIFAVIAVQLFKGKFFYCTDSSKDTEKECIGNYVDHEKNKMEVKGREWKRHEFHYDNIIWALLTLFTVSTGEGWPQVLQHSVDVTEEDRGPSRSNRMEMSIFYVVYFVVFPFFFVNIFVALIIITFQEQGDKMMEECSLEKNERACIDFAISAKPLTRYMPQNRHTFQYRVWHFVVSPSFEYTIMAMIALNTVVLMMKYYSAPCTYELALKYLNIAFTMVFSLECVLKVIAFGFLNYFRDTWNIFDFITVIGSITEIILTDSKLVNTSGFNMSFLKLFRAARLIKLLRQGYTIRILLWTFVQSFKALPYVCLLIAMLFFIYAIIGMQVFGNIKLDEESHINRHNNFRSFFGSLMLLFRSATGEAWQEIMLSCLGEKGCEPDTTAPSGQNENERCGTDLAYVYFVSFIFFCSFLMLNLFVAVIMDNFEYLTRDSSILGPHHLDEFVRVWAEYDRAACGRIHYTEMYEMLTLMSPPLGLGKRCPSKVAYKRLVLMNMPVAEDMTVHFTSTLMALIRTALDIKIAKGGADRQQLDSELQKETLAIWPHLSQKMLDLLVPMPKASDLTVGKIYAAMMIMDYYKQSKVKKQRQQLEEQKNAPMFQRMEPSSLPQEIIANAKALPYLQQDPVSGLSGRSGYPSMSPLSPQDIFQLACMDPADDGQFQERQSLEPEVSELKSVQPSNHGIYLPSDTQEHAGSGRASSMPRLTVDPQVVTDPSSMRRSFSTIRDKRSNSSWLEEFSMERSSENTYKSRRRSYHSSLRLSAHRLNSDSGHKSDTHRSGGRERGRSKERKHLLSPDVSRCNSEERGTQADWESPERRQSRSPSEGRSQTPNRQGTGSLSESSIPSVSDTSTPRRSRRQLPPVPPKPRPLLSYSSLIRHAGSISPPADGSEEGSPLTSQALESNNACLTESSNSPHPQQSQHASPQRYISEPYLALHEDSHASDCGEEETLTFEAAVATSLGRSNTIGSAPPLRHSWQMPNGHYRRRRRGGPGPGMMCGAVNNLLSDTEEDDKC
UniProt P54289, residues 25-1103: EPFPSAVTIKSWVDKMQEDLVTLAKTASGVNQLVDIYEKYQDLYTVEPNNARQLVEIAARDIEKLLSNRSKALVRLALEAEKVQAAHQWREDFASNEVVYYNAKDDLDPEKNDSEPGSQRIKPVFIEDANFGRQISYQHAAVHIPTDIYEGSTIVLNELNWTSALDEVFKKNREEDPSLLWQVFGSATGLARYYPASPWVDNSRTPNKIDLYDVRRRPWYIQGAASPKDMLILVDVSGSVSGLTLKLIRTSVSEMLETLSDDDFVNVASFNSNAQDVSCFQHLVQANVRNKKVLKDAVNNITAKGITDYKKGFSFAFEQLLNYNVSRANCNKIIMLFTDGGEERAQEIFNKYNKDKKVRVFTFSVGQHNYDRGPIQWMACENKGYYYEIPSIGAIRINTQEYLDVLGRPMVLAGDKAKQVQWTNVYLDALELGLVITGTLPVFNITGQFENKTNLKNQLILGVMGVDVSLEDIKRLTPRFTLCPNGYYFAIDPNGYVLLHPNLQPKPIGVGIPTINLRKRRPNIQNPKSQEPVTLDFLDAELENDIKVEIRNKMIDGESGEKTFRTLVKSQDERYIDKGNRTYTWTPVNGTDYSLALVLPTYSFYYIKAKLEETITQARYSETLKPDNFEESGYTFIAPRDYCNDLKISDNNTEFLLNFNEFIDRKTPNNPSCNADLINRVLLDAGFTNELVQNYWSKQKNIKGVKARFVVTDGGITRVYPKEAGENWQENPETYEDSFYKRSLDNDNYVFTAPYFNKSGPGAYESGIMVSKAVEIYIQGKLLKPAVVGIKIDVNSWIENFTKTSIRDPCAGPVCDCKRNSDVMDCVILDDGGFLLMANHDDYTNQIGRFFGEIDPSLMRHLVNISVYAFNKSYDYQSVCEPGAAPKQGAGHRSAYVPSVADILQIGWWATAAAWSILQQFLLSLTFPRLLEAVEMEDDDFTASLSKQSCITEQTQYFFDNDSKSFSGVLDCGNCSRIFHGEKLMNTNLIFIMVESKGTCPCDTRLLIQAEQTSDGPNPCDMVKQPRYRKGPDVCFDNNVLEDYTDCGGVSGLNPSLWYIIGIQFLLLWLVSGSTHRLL

Target: human CaV2.3 α1E subunit (CACNA1E) (human) (UniProt Q15878)
Assay: cryo-EM structure; CaV2.3-α2δ1-β1 complex co-expressed in HEK 293-F, solubilised in DDM/CHS, purified on Streptactin beads and by SEC in 20 mM HEPES pH 7.5, 150 mM NaCl, 5 mM β-ME, 0.01% GDN; 3.1 Å map; both purified

**Q.** For “human α2δ1 subunit (CACNA2D1) (from UniProt P54289 25-1103)”, which binding is on record?
**A.** Its binding is “binds”.
